# In all, about 33,000 sequences were measured (“E-score (-0.5 to 0.5)”: median about -0.0014, highest 2% from about 0.25 on). This is one part of the list.
# Biological target: T1, Cad1 (UniProt P24813)
# T1 sequence: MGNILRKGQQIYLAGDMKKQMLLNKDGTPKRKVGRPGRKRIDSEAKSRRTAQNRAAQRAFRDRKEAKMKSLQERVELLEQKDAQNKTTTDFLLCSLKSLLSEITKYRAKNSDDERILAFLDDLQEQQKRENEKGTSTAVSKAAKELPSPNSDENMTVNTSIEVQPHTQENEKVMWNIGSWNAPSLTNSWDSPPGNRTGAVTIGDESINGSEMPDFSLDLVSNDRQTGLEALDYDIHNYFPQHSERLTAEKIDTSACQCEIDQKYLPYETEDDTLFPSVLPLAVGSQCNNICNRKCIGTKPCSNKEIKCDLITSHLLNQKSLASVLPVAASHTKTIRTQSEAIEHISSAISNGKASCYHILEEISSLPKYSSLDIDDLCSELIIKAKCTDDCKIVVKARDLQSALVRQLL
# Test: PBM E-score (8-mer binding enrichment) (E-score (-0.5 to 0.5)); higher = stronger / more preferred TF binding
# Conditions: protein concentration: 100 nM; construct: GST-full length
# Summary of the method: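 GST-tagged yeast TFs (full-length or DNA-binding domain) were made by PURExpress in vitro transcription/translation and applied at about 100-200 nM to universal all-10-mer Agilent arrays. The arrays were made double-stranded by primer extension, on fresh or once-stripped slides. Bound protein was detected with fluorescent anti-GST, and scans were normalised with masliner. Each ungapped eight-base word, pooled with its reverse complement, received an E-score (modified Wilcoxon-Mann-Whitney statistic) from the Universal PBM Analysis Suite.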
row,Sequence,PBM E-score
1,CGTACCTA,-0.101
2,CGCAAAAG,-0.137
3,TATTGCAA,0.19
4,CTAGAGAA,0.0268
5,CTTAGAGA,-0.128
6,GGAAGCAC,-0.00516
7,AGGGGAAT,0.131
8,CGACTCAC,-0.18
9,CATATCCC,0.0466
10,TAAATCCA,0.104
11,ATACGTGG,-0.0335
12,CGTAGAAG,-0.0667
13,GGTTTGAC,-0.0869
14,CTCCGCAG,0.00742
15,CTTCATTC,-0.149
16,ACTACGAC,-0.0666
17,ATATCTGG,0.106
18,CTGCCTTA,-0.111
19,ATCGGATA,0.276
20,CACATTGC,0.122
21,GCATATAA,0.0993
22,CTCGCTCA,0.138

# In a second layout: results already given
row	Sequence	PBM E-score
2	CGCAAAAG	-0.137
3	TATTGCAA	0.19
4	CTAGAGAA	0.0268
5	CTTAGAGA	-0.128
6	GGAAGCAC	-0.00516
7	AGGGGAAT	0.131
8	CGACTCAC	-0.18
9	CATATCCC	0.0466
10	TAAATCCA	0.104
11	ATACGTGG	-0.0335
12	CGTAGAAG	-0.0667
13	GGTTTGAC	-0.0869
14	CTCCGCAG	0.00742
15	CTTCATTC	-0.149
16	ACTACGAC	-0.0666
17	ATATCTGG	0.106
18	CTGCCTTA	-0.111
19	ATCGGATA	0.276
20	CACATTGC	0.122
21	GCATATAA	0.0993

# Continued:

row,Sequence,PBM E-score
1,CTGAGCTC,0.0939
2,CGGGGAGA,-0.233
3,CCCTAAAG,-0.278
4,CACCCTAC,-0.00308
5,CTGGCGCC,0.239
6,CGTGATCC,-0.132
7,ATATACTC,-0.0465
8,CACTATAA,-0.0386
9,AAGCCGGC,0.149
10,AGCGTATA,0.0997
11,GGAACCAC,-0.0252
12,CATCCAGG,-0.0256
13,CCAAGGTC,-0.00836
14,GCGGTCTA,0.0493
15,ACGCAGCT,0.119
16,AGCAATTG,0.218
17,CGCTGATC,0.111
18,GTGACCTA,-0.131
19,AAATCCGA,0.00337
20,CGTGGTAG,-0.139
21,AGCTCAGG,-0.0585
22,AGTTTTGG,0.127

row,Sequence,PBM E-score
1,CCTTGTAC,-0.144
2,CCCCATAC,-0.0882
3,CGCTTAAG,0.0156
4,ATCTGATC,0.115
5,AAACAGAC,0.0478
6,GGTGAATA,0.0814
7,ACGGACTA,0.0288
8,CCGTCGCC,0.0415
9,TAACCGAA,0.101
10,ATCAAAAT,0.139
11,GGTAGGAA,0.127
12,AACGTTCA,-0.209
13,CCAAGAAA,-0.0062
14,TGCACGCA,-0.0647
15,AATACTAA,0.253
16,AGGGCATC,-0.208
17,CATGCGTA,0.0468
18,CTTAGTGA,-0.021
19,AGACCATA,0.188
20,CGAGCCGA,0.0282
21,ATGACTCC,-0.0435
22,CTCGGGCA,0.0974

row,Sequence,PBM E-score
1,AAGGGCCG,-0.116
2,GGTACCCA,-0.101
3,CCGCTACA,0.0177
4,ATTACCAA,0.292
5,AACATGCC,-0.0649
6,GCAAGTCC,-0.0237
7,CCTGGAGA,0.014
8,GACATGGA,0.0336
9,CACTCGAG,0.0439
10,GATCGATC,0.0347
11,GATGTGAC,-0.0433
12,CCTCCTCC,-0.244
13,CGGTGGAC,-0.177
14,GCCAGCCA,-0.0217
15,ATGTACCA,-0.0238
16,CAACTACA,0.0903
17,CCCTGGGA,-0.299
18,GACTTGAA,0.0861
19,CCCTGAAG,-0.165
20,AGAAACCC,-0.0818
